The subject of the experiment is Salmonella enterica serovar Typhimurium SL1344. The experiment in a line: bacterial growth OD600 after 18 h with compound and polymyxin B; higher = more bacterial growth (less inhibition). The note with it: 50 µM, Mueller-Hinton broth.

Some of the results follow. Values are raw readings; no control value is given beside them.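 Primary screen: polymyxin B was added at a level permeabilizing Salmonella outer membranes while sparing inner membranes. DMSO wells, both with and without polymyxin B, established maximum growth. Plate-to-plate variation meant each plate was ranked on its own, and the lowest-OD600 compounds were selected as hits.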

As for `CN(Cc1ccccc1)C1CCCN(C(=O)CCc2ccc(F)cc2)C1` (stereo not given), the “bacterial growth OD600” value (polymyxin B 1 µg/mL) came to 0.738. Consider `CC(Cc1ccsc1)NC(=O)CCC1(Cc2ccc(Cl)cc2)CCC(=O)N1` (stereo not given), for which the “bacterial growth OD600” value (polymyxin B 0.75 µg/mL) came to 0.797. Still for that read-out and setting: to `Cn1ccnc1CNc1ccc(-c2nc(Cc3ccc(F)cc3)no2)cn1` belongs 0.38; to `O=S(=O)(Nc1cccc(N2CCC(NCCc3cccs3)CC2)c1)c1ccc(F)cc1`, 0.858.

As for `COCCn1cnc2cc(NC(=O)C3CCCCC3)cc(C(=O)N3CCN(C(C)=O)CC3)c21`, the “bacterial growth OD600” value (polymyxin B 0.75 µg/mL) came out at 0.865. For `Cc1nn(C)cc1CN(C)CC1(O)CCCN(Cc2cccc(F)c2F)C1=O` (stereo not given), the “bacterial growth OD600” value (polymyxin B 1 µg/mL) stood at 0.945. For the compound `C=Cc1ccc(C(=O)N2CCC(c3nc(-c4ccncc4)ncc3-c3cccc(OC)c3)CC2)cc1`, the “bacterial growth OD600” value (polymyxin B 0.75 µg/mL) came out at 0.012. As to `Cc1ccc(CN2CCN(Cc3ccccc3F)CC2CCO)o1` (stereo not given), for the setting “polymyxin B 1 µg/mL”, the “bacterial growth OD600” value was 0.916. For `CCc1nc2cc(F)ccc2n1C1CCN(C(=O)Cc2c(C)nn(-c3ccccc3)c2C)CC1`, where the note is “polymyxin B 0.75 µg/mL”, the “bacterial growth OD600” value worked out at 0.818. For the compound `COc1ccc(CN(CC2CCN(C3CCCC3)CC2)CC2CCCO2)c(OC)c1` (stereo not given), the “bacterial growth OD600” value (polymyxin B 1 µg/mL) turned out to be 0.868. As to `CCC1C(=O)NCCN1Cc1ccc2c(c1)CN(Cc1ccc(C(=O)OC)cc1)CCO2` (stereo not given), the “bacterial growth OD600” value (polymyxin B 0.75 µg/mL) was found to be 0.94.

Consider `Cc1ccccc1N1CCN(c2ncccc2CNC(=O)c2cscn2)CC1`, for which the “bacterial growth OD600” value (polymyxin B 1 µg/mL) amounted to 0.387. Regarding `COCCN1CCN(C(=O)c2cc(Cn3nc(C)cc3C)[nH]n2)CC1`, the “bacterial growth OD600” value (polymyxin B 1 µg/mL) was determined as 1.05. In the case of `COc1cc(CN2CCSCC2)ccc1OCC(O)CN(C)C(C)C` (stereo not given), the “bacterial growth OD600” value (polymyxin B 0.75 µg/mL) amounted to 0.823. Turning to `Cc1cc(=O)c(C(=O)N(CC2CCN(Cc3ccccc3F)CC2)CC2CCCO2)c[nH]1` (stereo not given), the “bacterial growth OD600” value (polymyxin B 1 µg/mL) was 1.17.

In the case of `CCOC(=O)C1(Cc2ccc(F)cc2)CCCN(C(=O)c2cccc(C)c2)C1` (stereo not given), the “bacterial growth OD600” value (polymyxin B 1 µg/mL) turned out to be 0.015. With `CCC1CN(CCC(=O)N(C)Cc2ccc(OC)c3ncccc23)Cc2cc(OC)ccc2O1` (stereo not given), under “polymyxin B 0.75 µg/mL”, the “bacterial growth OD600” value is 0.782. As to `Fc1ccc(CN2CCOc3ccc(CN4CCC(Oc5cccnc5)CC4)cc3C2)cc1`, under “polymyxin B 0.75 µg/mL”, the “bacterial growth OD600” value was 0.788.

Regarding `O=C(NCC1CCCN(Cc2ccccn2)C1)C1(c2ccc(Cl)cc2)CC1` (stereo not given), the “bacterial growth OD600” value (polymyxin B 1 µg/mL) came out at 0.676. On to `CCC1CN(Cc2cn(C)nc2C)Cc2cc(OC)ccc2O1` (stereo not given), for which, for the setting “polymyxin B 0.75 µg/mL”, the “bacterial growth OD600” value came to 0.818. For the compound `Cc1cc(-c2nn(-c3ccccc3F)cc2CN(C)Cc2ccon2)c(C)s1`, the “bacterial growth OD600” value (polymyxin B 1 µg/mL) came out at 0.008. On to `Cc1ncc2c(c1CNC(=O)/C=C/c1ccccc1)CCN(C(=O)CCc1c[nH]c3ccccc13)C2`, for which, for the setting “polymyxin B 0.75 µg/mL”, the “bacterial growth OD600” value was found to be 0.945.

`Cc1cnc(-n2ncc(C(=O)NC3CCCN(Cc4ccccc4)C3)c2C2CC2)nc1-c1cccs1` (stereo not given): for the setting “polymyxin B 0.75 µg/mL”, the “bacterial growth OD600” value was found to be 0.086. Regarding `O=C(Cc1ccc2c(c1)OCO2)NC1CCCc2c1cnn2-c1ccc(F)cc1F` (stereo not given), the “bacterial growth OD600” value (polymyxin B 1 µg/mL) was 0.78.

As for `COCc1noc(-c2ccc(N(C)CCC3CCOCC3)nc2)n1`, the “bacterial growth OD600” value (polymyxin B 0.75 µg/mL) amounted to 0.837. Regarding `CC(C)N(Cc1nccn1C)c1ccc(-c2nc(C3CC3)no2)cn1`, the “bacterial growth OD600” value (polymyxin B 0.75 µg/mL) was found to be 0.813.

As for `O=C(Nc1ccnn1C1CCN(C(=O)Cc2c(F)cc(F)cc2F)CC1)C1CCOC1` (stereo not given), the “bacterial growth OD600” value (polymyxin B 0.75 µg/mL) is 0.763. As for `CCC(=O)N[C@@H]1c2ccccc2C2(CCN(C(=O)c3cnsn3)CC2)[C@H]1OCc1cccnc1`, the “bacterial growth OD600” value (polymyxin B 0.75 µg/mL) came out at 0.808.

In the case of `COCc1ccc(C(=O)Nc2ccc(-c3nc(CNC(=O)CSc4ccccc4)c(C)o3)cc2)o1`, the “bacterial growth OD600” value (polymyxin B 0.75 µg/mL) stood at 0.1. For the compound `O=C(NC1(c2ccccc2)CC1)C1CCCN(C2CCN(C(=O)C3CC3)CC2)C1` (stereo not given), the “bacterial growth OD600” value (polymyxin B 1 µg/mL) was determined as 0.842.

These data come from the supplement of paper PMC12889115.
